According to the supplement of paper PMC10849652:
The list shows a part of the results.

Protein sequences, listed by entry. Tags and fused reporters are not part of them. Lines headed by an entry give the natural chain unless they say otherwise; changes in a name come on top.
UniProt Q9Y3E1: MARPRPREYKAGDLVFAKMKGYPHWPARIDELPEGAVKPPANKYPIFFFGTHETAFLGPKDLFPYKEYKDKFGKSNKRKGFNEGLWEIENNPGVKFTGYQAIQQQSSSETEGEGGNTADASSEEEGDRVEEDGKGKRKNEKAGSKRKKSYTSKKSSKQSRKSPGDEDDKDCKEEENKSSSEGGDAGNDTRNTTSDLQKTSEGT
UniProt Q9UJ83: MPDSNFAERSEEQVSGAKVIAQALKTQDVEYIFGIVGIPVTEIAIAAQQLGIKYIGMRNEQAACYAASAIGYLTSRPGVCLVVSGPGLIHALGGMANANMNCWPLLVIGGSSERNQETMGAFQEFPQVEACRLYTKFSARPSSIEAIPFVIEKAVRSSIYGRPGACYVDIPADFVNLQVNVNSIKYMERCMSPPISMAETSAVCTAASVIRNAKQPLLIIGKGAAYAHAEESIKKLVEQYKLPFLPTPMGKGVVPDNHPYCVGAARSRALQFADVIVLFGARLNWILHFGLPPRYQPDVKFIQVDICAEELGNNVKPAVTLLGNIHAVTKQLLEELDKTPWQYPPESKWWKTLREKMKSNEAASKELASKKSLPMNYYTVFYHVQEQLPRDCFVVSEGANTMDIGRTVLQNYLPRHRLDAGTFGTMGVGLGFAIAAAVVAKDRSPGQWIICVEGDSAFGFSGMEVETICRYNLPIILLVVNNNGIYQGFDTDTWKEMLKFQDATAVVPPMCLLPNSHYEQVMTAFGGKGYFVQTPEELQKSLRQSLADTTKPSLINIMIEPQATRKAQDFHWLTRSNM
UniProt Q969F1: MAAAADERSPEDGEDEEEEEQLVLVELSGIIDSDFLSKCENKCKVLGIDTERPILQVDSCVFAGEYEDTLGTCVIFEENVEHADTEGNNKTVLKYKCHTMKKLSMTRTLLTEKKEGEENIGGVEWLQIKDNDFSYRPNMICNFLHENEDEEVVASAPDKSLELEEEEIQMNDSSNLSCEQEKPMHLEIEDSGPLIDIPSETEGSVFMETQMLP
UniProt Q9Y450, whole entry, looked up: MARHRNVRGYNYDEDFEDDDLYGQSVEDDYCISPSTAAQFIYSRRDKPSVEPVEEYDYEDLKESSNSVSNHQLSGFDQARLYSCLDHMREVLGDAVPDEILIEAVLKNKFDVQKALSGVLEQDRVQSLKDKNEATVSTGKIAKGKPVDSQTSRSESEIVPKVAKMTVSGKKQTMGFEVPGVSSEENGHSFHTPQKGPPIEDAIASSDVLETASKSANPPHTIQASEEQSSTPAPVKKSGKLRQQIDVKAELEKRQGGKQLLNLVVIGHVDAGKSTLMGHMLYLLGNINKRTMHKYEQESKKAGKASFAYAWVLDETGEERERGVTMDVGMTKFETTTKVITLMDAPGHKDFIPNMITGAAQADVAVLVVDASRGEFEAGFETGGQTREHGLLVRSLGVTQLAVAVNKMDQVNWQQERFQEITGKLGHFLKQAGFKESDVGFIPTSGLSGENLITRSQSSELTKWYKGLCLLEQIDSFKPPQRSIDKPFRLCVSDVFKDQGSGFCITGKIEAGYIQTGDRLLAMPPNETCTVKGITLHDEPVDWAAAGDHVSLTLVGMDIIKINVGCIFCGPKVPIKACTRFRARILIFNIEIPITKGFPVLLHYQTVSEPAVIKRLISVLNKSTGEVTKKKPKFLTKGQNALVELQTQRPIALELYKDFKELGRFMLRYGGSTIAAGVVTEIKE
UniProt Q8WUI4: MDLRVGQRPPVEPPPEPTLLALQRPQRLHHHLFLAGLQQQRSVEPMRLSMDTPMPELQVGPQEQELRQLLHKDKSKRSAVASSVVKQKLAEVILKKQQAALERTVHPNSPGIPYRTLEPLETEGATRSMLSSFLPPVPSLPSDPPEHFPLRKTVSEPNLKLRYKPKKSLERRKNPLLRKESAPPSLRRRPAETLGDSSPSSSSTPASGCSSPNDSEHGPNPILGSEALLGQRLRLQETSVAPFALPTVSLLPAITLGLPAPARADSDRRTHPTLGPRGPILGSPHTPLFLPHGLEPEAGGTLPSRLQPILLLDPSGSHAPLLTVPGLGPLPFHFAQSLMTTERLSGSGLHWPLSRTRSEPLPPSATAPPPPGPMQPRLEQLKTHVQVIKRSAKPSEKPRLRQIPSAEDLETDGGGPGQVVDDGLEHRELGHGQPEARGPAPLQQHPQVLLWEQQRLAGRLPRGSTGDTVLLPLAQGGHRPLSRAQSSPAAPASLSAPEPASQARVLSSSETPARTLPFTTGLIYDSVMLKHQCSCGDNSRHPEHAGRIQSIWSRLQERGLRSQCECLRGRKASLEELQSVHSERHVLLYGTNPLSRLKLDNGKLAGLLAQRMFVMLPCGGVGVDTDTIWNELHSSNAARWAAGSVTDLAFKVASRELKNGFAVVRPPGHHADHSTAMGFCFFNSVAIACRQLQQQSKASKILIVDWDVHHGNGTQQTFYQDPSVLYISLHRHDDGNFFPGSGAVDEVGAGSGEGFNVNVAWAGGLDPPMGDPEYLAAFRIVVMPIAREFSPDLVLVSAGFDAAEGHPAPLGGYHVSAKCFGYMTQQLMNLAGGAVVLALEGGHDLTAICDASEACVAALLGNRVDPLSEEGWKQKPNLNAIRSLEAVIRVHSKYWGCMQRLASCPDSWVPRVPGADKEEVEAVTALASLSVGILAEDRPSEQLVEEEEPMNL
UniProt Q8TAA5: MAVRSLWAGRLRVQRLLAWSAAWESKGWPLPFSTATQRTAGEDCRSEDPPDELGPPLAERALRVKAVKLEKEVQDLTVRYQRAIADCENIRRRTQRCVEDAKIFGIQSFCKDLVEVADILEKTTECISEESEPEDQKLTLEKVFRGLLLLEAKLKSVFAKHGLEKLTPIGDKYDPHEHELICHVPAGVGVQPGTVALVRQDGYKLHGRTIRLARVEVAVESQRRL
UniProt O00165, whole entry, looked up: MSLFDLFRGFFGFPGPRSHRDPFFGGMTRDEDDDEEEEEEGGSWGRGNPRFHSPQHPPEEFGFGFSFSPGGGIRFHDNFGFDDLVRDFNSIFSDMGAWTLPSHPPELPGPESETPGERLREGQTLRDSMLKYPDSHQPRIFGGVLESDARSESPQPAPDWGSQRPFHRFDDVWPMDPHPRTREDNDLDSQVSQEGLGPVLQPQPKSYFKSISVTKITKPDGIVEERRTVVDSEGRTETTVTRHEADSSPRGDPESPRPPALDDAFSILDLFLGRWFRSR
UniProt Q99871: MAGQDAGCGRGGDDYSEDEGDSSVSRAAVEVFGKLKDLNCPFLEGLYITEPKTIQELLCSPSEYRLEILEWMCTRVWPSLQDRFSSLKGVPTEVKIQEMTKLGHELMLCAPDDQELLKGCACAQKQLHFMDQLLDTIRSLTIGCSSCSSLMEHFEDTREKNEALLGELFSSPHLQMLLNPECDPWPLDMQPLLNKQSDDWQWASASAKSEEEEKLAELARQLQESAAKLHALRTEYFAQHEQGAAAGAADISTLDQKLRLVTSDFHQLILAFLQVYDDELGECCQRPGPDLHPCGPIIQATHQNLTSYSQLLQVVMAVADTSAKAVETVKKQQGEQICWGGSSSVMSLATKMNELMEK
UniProt P02100: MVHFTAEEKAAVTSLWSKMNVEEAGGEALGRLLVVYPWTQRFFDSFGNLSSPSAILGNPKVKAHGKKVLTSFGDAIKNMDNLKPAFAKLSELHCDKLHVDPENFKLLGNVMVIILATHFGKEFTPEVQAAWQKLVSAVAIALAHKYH
UniProt Q9Y4H4: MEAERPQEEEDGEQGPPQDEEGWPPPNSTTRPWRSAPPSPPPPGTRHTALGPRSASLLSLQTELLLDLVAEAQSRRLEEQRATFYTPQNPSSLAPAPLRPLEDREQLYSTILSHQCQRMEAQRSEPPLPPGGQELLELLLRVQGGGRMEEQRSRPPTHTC
UniProt Q4V328: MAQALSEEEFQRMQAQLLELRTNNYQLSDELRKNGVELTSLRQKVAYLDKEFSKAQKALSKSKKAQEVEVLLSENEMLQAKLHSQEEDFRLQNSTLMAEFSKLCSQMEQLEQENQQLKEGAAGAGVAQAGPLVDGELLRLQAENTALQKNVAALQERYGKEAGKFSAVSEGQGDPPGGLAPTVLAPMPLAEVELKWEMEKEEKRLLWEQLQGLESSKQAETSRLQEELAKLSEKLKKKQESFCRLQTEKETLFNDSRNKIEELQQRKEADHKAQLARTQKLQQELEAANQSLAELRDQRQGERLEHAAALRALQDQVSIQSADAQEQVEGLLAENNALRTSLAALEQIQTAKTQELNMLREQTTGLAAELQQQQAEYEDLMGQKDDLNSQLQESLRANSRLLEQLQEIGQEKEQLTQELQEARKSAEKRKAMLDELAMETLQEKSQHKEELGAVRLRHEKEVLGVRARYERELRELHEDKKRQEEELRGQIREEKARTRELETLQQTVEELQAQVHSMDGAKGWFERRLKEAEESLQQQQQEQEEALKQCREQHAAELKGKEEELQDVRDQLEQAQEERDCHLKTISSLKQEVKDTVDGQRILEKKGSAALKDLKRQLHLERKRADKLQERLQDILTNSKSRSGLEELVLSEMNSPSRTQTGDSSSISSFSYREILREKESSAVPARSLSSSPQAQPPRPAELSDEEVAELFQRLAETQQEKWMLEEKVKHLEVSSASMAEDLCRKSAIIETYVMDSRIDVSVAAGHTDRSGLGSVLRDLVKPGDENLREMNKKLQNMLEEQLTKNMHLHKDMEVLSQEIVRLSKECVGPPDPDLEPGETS
UniProt P34947, whole entry, looked up: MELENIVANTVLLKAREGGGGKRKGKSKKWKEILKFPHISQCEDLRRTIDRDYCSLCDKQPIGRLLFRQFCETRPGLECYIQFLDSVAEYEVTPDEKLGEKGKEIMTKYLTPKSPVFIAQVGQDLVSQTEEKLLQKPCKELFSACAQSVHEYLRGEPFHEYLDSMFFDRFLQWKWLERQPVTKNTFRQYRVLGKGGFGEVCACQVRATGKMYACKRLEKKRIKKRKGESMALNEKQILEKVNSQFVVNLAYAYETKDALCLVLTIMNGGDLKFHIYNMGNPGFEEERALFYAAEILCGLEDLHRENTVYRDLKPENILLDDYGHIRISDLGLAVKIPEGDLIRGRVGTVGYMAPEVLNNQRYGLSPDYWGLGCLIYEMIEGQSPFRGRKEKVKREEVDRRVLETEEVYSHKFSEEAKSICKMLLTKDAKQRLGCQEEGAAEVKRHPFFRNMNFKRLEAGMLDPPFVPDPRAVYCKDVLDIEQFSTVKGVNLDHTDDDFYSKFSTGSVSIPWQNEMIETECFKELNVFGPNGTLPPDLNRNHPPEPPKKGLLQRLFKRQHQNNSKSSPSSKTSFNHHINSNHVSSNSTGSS
UniProt Q9Y5Z7: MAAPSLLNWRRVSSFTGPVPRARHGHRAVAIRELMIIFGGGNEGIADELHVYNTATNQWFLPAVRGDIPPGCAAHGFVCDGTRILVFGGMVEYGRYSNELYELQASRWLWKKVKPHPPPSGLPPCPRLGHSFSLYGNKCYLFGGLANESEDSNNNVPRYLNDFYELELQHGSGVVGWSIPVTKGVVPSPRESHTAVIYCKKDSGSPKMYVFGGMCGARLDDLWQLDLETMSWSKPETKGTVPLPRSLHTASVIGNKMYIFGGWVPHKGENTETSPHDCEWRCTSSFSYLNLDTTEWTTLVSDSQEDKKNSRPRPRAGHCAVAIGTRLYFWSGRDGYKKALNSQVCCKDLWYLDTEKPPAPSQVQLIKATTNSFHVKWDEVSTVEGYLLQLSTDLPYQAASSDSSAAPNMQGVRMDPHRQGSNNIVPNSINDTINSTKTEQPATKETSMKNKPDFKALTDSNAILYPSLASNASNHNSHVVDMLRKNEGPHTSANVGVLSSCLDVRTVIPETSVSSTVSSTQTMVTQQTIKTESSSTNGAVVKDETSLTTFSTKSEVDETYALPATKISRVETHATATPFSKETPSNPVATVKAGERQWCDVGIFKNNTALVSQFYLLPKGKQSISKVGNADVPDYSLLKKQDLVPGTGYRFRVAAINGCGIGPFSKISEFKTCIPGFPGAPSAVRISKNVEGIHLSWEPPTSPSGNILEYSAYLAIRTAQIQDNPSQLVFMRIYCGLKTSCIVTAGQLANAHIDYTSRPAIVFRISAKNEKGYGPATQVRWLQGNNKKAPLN
UniProt O15488: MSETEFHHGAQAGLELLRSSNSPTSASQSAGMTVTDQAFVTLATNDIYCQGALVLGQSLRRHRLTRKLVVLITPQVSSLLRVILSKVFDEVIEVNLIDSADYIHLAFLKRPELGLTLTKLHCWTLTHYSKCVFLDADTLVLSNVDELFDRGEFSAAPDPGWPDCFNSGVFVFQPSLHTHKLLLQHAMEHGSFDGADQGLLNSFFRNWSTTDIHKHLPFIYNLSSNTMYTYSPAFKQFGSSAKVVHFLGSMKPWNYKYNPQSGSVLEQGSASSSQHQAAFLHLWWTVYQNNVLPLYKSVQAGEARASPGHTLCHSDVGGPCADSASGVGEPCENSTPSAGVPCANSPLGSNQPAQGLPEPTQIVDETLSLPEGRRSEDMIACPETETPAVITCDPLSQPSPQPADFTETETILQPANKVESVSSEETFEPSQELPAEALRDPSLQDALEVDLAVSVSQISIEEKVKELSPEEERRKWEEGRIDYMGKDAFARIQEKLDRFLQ

How the values were obtained:
Assay in all cases: log2 fold change, soluble protein after heating vs DMSO (PISA); higher = thermal stabilisation; K562 lysate, 10 uM; active = over 0.2 and 3.5 SD of the protein, either way, in both replicates (recomputed)
[1] = compound: CS(=O)(=O)CCNCc1ccc(-c2ccc3ncnc(Nc4ccc(OCc5cccc(F)c5)c(Cl)c4)c3c2)o1 [lapatinib]
Method in brief: (§1)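 Soluble protein was defined as the supernatant remaining after 21,000xg for 90 min, following pooling of heated aliquots and adjustment to 0.5% NP-40 at 4°C. Before that, crude K562 extract at 1 mg/mL protein in PBS pH 7.4 with 1 mM MgCl2 was treated with 10 μM compound for 30 min and heated for 3 min across 48°C-58°C. Quantification used TMTpro 16plex LC-MS/MS with channel sums equalised, and values are log-two fold changes in thermal stability relative to solvent controls from duplicates.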

[2] = compound: CS(=O)(=O)N1CCN(Cc2cc3nc(-c4cccc5[nH]ncc45)nc(N4CCOCC4)c3s2)CC1 [pictilisib]
Method in brief: as §1

[3] = compound: C[C@@H](Oc1cc(-c2cnn(C3CCNCC3)c2)cnc1N)c1c(Cl)ccc(F)c1Cl [crizotinib]
Method in brief: as §1

[4] = compound: C[C@H](C1=CC=C(C=C1)C(=O)NC2=C3C=CNC3=NC=C2)N
Method in brief: as §1

[5] = compound: C[C@H](Nc1ncnc2nc[nH]c12)c1cc2cccc(Cl)c2c(=O)n1-c1ccccc1 [duvelisib]
Method in brief: as §1

[6] = compound: Cc1cc(Nc2cc(CN3CCOCC3)c3nc(C)c(Cc4ccc(Cl)cc4F)n3n2)n[nH]1 [gandotinib]
Method in brief: as §1

[7] = compound: Cc1cc(Nc2cc(N3CCN(C)CC3)nc(Sc3ccc(NC(=O)C4CC4)cc3)n2)n[nH]1 [tozasertib]
Method in brief: as §1

[8] = compound: Cc1ccc(-n2nc(C(C)(C)C)cc2NC(=O)Nc2ccc(OCCN3CCOCC3)c3ccccc23)cc1 [doramapimod]
Method in brief: as §1

[9] = compound: Cc1ccc(NC(=O)c2ccc(CN3CC[C@H](N(C)C)C3)c(C(F)(F)F)c2)cc1Nc1nccc(-c2cncnc2)n1 [bafetinib]
Method in brief: as §1

[10] = compound: Cc1cccc(CC(=O)N2CCc3c2ccc(-c2cn(C)c4ncnc(N)c24)c3F)n1
Method in brief: as §1

[11] = compound: Cc1cn(-c2cc(NC(=O)c3ccc(C)c(Nc4nccc(-c5cccnc5)n4)c3)cc(C(F)(F)F)c2)cn1 [nilotinib]
Method in brief: as §1

[12] = compound: Cc1nc(Nc2n[nH]c3c2CN(C(=O)N[C@H](CN(C)C)c2ccccc2)C3(C)C)c2sccc2n1
Method in brief: as §1

[13] = compound: Cc1nc(Nc2ncc(C(=O)Nc3c(C)cccc3Cl)s2)cc(N2CCN(CCO)CC2)n1 [dasatinib]
Method in brief: as §1

[14] = compound: Cc1ncc(-c2ccnc(Nc3ccc(S(C)(=O)=O)cc3)n2)n1C(C)C
Method in brief: as §1

[15] = compound: Cn1cc(-c2ccc3c(c2)CCN3C(=O)Cc2cccc(C(F)(F)F)c2)c2c(N)ncnc21
Method in brief: as §1

[16] = compound: Cn1cc(CNCC2CCN(c3ncc(C(=O)NO)cn3)CC2)c2ccccc21 [quisinostat]
Method in brief: as §1

[17] = compound: Cn1cncc1[C@@](N)(c1ccc(Cl)cc1)c1ccc2c(c1)c(-c1cccc(Cl)c1)cc(=O)n2C [tipifarnib]
Method in brief: as §1

[18] = compound: NC(=O)Nc1cc(-c2cccc(F)c2)sc1C(=O)N[C@H]1CCCNC1
Method in brief: as §1

[19] = compound: NC(=O)c1cnc(N[C@@H]2CCCC[C@@H]2N)nc1Nc1cccc(-n2nccn2)c1
Method in brief: as §1

[20] = compound: NC1(c2ccc(-c3nc4ccn5c(=O)[nH]nc5c4cc3-c3ccccc3)cc2)CCC1
Method in brief: as §1

Measured: log2 fold change

HDGFL3 (UniProt Q9Y3E1)
inactive: [1] -0.028 | [2] 0.008 | [3] 0.04 | [4] -0.026 | [5] 0.014 | [6] 0.031 | [7] -0.016 | [8] 0.007 | [9] 0.058 | [10] -0.055 | [11] 0.021 | [12] -0.016 | [13] 0.022 | [14] 0.046 | [15] 0.002 | [16] -0.039 | [17] 0.025 | [18] 0.04 | [19] -0.015 | [20] -0.006

HACL1 (UniProt Q9UJ83)
inactive: [1] -0.05 | [2] 0.005 | [3] 0.01 | [4] 0.005 | [5] 0.023 | [6] 0.003 | [7] -0.019 | [8] -0.05 | [9] -0.013 | [10] -0.046 | [11] 0.073 | [12] 0.029 | [13] 0.023 | [14] 0.014 | [15] -0.004 | [16] -0.018 | [17] -0.008 | [18] 0.003 | [19] 0.006 | [20] 0.019

GTF3C6 (UniProt Q969F1)
inactive: [1] 0.07 | [2] 0.002 | [3] -0.007 | [4] 0.126 | [5] -0.002 | [6] -0.035 | [7] -0.013 | [8] -0.03 | [9] 0.223 | [10] -0.041 | [11] -0.034 | [12] 0.014 | [13] 0.068 | [14] -0.088 | [15] 0.001 | [16] -0.072 | [17] -0.083 | [18] -0.02 | [19] -0.027 | [20] -0.021

HBS1L (UniProt Q9Y450)
inactive: [1] 0.009 | [2] 0.001 | [3] -0.048 | [4] 0.037 | [5] 0.006 | [6] -0.062 | [7] 0.018 | [8] 0.029 | [9] -0.044 | [10] 0.01 | [11] 0.019 | [12] -0.005 | [13] 0.012 | [14] -0.024 | [15] 0.003 | [16] -0.108 | [17] -0.012 | [18] 0.068 | [19] -0.006 | [20] -0.038

HDAC7 isoform 5 (UniProt Q8WUI4)
inactive: [1] 0.015 | [2] 0.029 | [3] 0.014 | [4] -0.015 | [5] 0.013 | [6] 0.012 | [7] 0.014 | [8] 0.031 | [9] 0.017 | [10] 0.026 | [11] 0.004 | [12] -0.004 | [13] -0.018 | [14] -0.005 | [15] -0.041 | [17] -0.051 | [18] -0.009 | [19] 0.013 | [20] 0.002

GRPEL2 (UniProt Q8TAA5)
inactive: [1] -0.042 | [2] -0.023 | [3] 0.007 | [4] -0.198 | [5] 0.026 | [6] 0.019 | [7] -0.092 | [8] -0.024 | [9] -0.071 | [10] 0.077 | [11] 0.033 | [12] 0.035 | [13] 0.025 | [14] -0.09 | [15] 0.024 | [16] -0.037 | [17] -0.104 | [18] 0.031 | [19] 0.213 | [20] 0.039

HAX1 (UniProt O00165)
inactive: [1] 0.021 | [2] 0.011 | [3] -0.027 | [4] -0.002 | [5] -0.071 | [6] -0.08 | [7] -0.004 | [8] 0.028 | [9] -0.009 | [10] 0.059 | [11] 0.003 | [12] -0.059 | [13] -0.104 | [14] -0.015 | [15] 0.081 | [16] -0.012 | [17] -0.097 | [18] 0.013 | [19] -0.004 | [20] -0.012

HAUS7 isoform 2 (UniProt Q99871)
inactive: [1] 0.022 | [2] 0.012 | [3] -0.053 | [4] 0.102 | [5] -0.063 | [6] -0.156 | [7] -0.113 | [8] 0.072 | [9] -0.139 | [10] 0.015 | [11] 0.021 | [12] 0.007 | [13] 0.015 | [14] 0.055 | [15] -0.026 | [16] -0.037 | [17] -0.011 | [18] 0.063 | [19] 0.024 | [20] -0.047

HBE1 (UniProt P02100)
inactive: [1] 0.035 | [2] -0.016 | [3] 0.032 | [4] 0.028 | [5] -0.005 | [6] 0 | [7] -0.002 | [8] 0 | [9] -0.016 | [10] -0.044 | [11] 0.035 | [12] -0.015 | [13] 0.04 | [14] 0.012 | [15] -0.038 | [16] 0.061 | [17] 0.023 | [18] -0.041 | [19] -0.029 | [20] 0.002

GSTO1 (UniProt Q5TA02)
inactive: [1] -0.191 | [11] -0.222 | [12] 0.039 | [14] 0.027 | [17] 0.17 | [19] -0.035

GPSM3 (UniProt Q9Y4H4)
inactive: [1] 0.007 | [3] 0.08 | [4] -0.101 | [5] 0.056 | [6] 0.124 | [8] 0.052 | [10] -0.181 | [11] 0.142 | [12] 0.004 | [13] -0.261 | [14] -0.012 | [15] 0.003 | [16] -0.092 | [17] 0.174 | [18] -0.003 | [19] 0.166 | [20] -0.07

GRIPAP1 isoform 2 (UniProt Q4V328)
inactive: [3] 0.152 | [8] -0.308 | [16] 0.094 | [18] 0.121

2 records drawn at random from those above:
GRIPAP1 isoform 2 (UniProt Q4V328)
inactive: [3] 0.152 | [8] -0.308 | [16] 0.094 | [18] 0.121

HDAC7 isoform 5 (UniProt Q8WUI4)
inactive: [1] 0.015 | [2] 0.029 | [3] 0.014 | [4] -0.015 | [5] 0.013 | [6] 0.012 | [7] 0.014 | [8] 0.031 | [9] 0.017 | [10] 0.026 | [11] 0.004 | [12] -0.004 | [13] -0.018 | [14] -0.005 | [15] -0.041 | [17] -0.051 | [18] -0.009 | [19] 0.013 | [20] 0.002

Next results:

GRK5 (UniProt P34947)
inactive: [11] -0.137 | [12] -0.022 | [14] -0.085 | [17] 0.2 | [20] -0.021

GTPBP6 (UniProt O43824)
inactive: [4] 0.149 | [5] -0.003 | [6] 0.156 | [7] 0.023 | [10] -0.023 | [13] -0.025 | [15] 0.136

HCFC2 (UniProt Q9Y5Z7)
inactive: [2] -0.015 | [3] 0.07 | [8] 0 | [9] -0.083 | [16] -0.004 | [18] -0.064

GYG2 (UniProt O15488)
inactive: [1] -0.028 | [2] -0.002 | [5] 0.026 | [7] 0.118 | [9] -0.132 | [13] -0.023 | [15] 0.018 | [19] -0.074 | [20] 0.013

HDAC3 (UniProt E7ESJ6)
inactive: [1] -0.073 | [19] 0.058

H3-2 (UniProt Q5TEC6)
inactive: [2] 0.047 | [3] 0.028 | [5] -0.274 | [7] 0.067 | [8] 0.075 | [9] 0.147 | [13] 0.014 | [15] -0.383 | [16] -0.113 | [18] -0.048
